Assay results: PubChem BioAssay AID2685 (National Center for Advancing Translational Sciences (NCATS), 2010)
The other results are listed elsewhere or left out. Further columns of the screen follow, without active or inactive calls. Compounds called inactive in the main read-out are mostly missing here. The note in brackets gives the kind of curve behind each potency; many fits are weak.

Experiment: qHTS Assay for Lipid Storage Modulators in Drosophila S3 Cells;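 on cell number change: cells counted by Cell Tracker Red CMTPX staining in the red channel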
Details: BODIPY lipid droplet fluorescence, 18-24 h; for cell number change: measured here: cell count max response, cells fed with added oleic acid
Method in brief: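 Drosophila S3 cells got compounds at several concentrations plus oleic acid (400 uM solution). Laser-scanning cytometry with 488 nm excitation read lipid droplets at 500-530 nm and cells at 575-640 nm. Percent activity was relative to 20 uM Triacsin C.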

[1] = measured here: lipid fluorescence (Fed channel) AC50, cells fed with added oleic acid
[2] = measured here: cell number channel AC50, cells fed with added oleic acid

| SMILES | cell number change [%] | AC50 [1] | AC50 [2] |
| --- | --- | --- | --- |
| Cc1ccc(C(C(=O)NC2CCCC2)N(C(=O)CNC(=O)c2ccco2)c2ccccc2)o1 (stereo unspecified) | 14.8 |  |  |
| COc1cccc(-c2nn(C)c3sc(C(=O)NCCCN(C)Cc4ccccc4)cc23)c1 | 0.236 | 4110 nM [falling, full curve, poor fit] |  |
| Cc1cc(C)cc(CC2CC(=O)N(c3ccc([N+](=O)[O-])cc3)C2=O)c1 (stereo unspecified) | 30.1 |  | 4110 nM [rising, partial curve, poor fit] |
| CC(OC(=O)c1ccc(Cl)c(S(=O)(=O)N2CCOCC2)c1)C(=O)NC1CCCCC1C (stereo unspecified) |  |  | 6510 nM [rising, single point] |
| O=C(CN1CCN(S(=O)(=O)c2ccc(Br)cc2)CC1)N/N=C/c1ccncc1 | 15.6 | 29100 nM [rising, single point] |  |
| CC(C)(C)/C(O)=C(/C#N)c1nc2ccccc2[nH]1 | 99 | 259 nM [rising, full curve] | 2310 nM [rising, partial curve, poor fit] |
| Cc1cc(C)cc(-n2ncc3c2CCCC3NC(=O)c2cc(C)oc2C)c1 (stereo unspecified) | -8.26 | 206 nM [falling, full curve, poor fit] | 51.7 nM [falling, full curve] |
| CC(C)n1cc(C(=O)NC2CC(C)(C)Cc3c2cnn3-c2ccccc2)cn1 (stereo unspecified) | 2.47 |  |  |
| NS(=O)(=O)c1ccc(CNC(=O)/C=C/c2c(Cl)cccc2Cl)cc1 | 14 | 23100 nM [falling, single point] |  |
| CCOc1ccc(C(=O)COC(=O)CNC(=O)C2CCCCC2)cc1 | -2.38 | 2910 nM [rising, single point] |  |
| COc1ccc(-c2csc(NC(=O)CCn3cnc4ccccc4c3=O)n2)cc1OC | -42.9 | 32600 nM [falling, single point] | 29100 nM [falling, single point] |
| COc1ccc(Br)cc1S(=O)(=O)Nc1ccc(Cl)cn1 | 6.3 | 29100 nM [falling, single point] |  |
| COc1cccc(C(=O)N/N=C2\SCC(=O)N2Cc2ccc3c(c2)OCO3)c1 | 63.6 | 65.1 nM [rising, full curve, poor fit] | 411 nM [rising, full curve] |
| CCCCN(CCCC)C(=S)N/N=C/c1c(C)[nH]n(-c2ccccc2)c1=O | 1.18 | 8200 nM [falling, partial curve, poor fit] |  |
| COc1ccc(N(C(=O)c2ccco2)S(=O)(=O)c2cccs2)cc1 | -44.8 | 8200 nM [falling, single point] | 1640 nM [falling, partial curve, poor fit] |
| CC(C)Oc1ccc(CCNC(=O)C2CCC(=O)N(C3CCCCCC3)C2)cc1 (stereo unspecified) | -20.8 | 2590 nM [rising, partial curve, poor fit] |  |
| CCN(Cc1ccccc1)C(=O)COC(=O)c1n[nH]c2ccccc12 | 60.2 |  | 16400 nM [rising, single point] |
| Cc1nn(Cc2ccc(F)cc2)c(C)c1NC(=O)c1cnn2cccnc12 | 5.46 | 4110 nM [falling, single point] |  |
| Cc1ccc(N2CC(C(=O)Nc3ccc4c(c3)OCO4)CC2=O)cc1C (stereo unspecified) | 38.3 | 6510 nM [rising, single point] | 4110 nM [rising, full curve, poor fit] |

Random excerpt: two records from the list

| SMILES | cell number change [%] | AC50 [1] | AC50 [2] |
| --- | --- | --- | --- |
| Cc1cc(C)cc(CC2CC(=O)N(c3ccc([N+](=O)[O-])cc3)C2=O)c1 (stereo unspecified) | 30.1 |  | 4110 nM [rising, partial curve, poor fit] |
| Cc1ccc(N2CC(C(=O)Nc3ccc4c(c3)OCO4)CC2=O)cc1C (stereo unspecified) | 38.3 | 6510 nM [rising, single point] | 4110 nM [rising, full curve, poor fit] |

Next part:

| SMILES | cell number change [%] | AC50 [1] | AC50 [2] |
| --- | --- | --- | --- |
| Cc1ccc(OCCNC(=O)c2ccc(C)o2)cc1 | 25.4 | 9200 nM [falling, partial curve] |  |
| Cc1cc(C)c2c(CC(=O)NNC(=O)c3ccccc3)coc2c1 | 36.5 | 12600 nM [rising, partial curve] | 12600 nM [rising, partial curve, poor fit] |
| O=C(CSc1nccn1-c1ccc(Cl)cc1)NCc1ccc2c(c1)OCO2 | 107 | 1840 nM [rising, full curve] | 1640 nM [rising, full curve] |
| CC(=O)N1CCCc2cc(S(=O)(=O)CCC(=O)Nc3cccc(C)c3C)ccc21 | -12.5 | 6510 nM [falling, single point] | 206 nM [falling, full curve, poor fit] |
| Cc1ccc(NC(=O)NC2CCCCC2)cc1Cl |  | 2590 nM [rising, partial curve] | 920 nM [rising, partial curve] |
| COc1cc2c(cc1OC)CN(Cc1cc(OC)c(O)c(OC)c1)CC2 | 66.7 |  | 2310 nM [rising, full curve] |
| Cc1cccc(OCCCCc2c(C)n[nH]c2C)c1C | -64.4 |  | 29100 nM [falling, single point] |
| O=c1[nH]c(C2CCN(S(=O)(=O)Cc3ccccc3)CC2)nc2c1nnn2Cc1cccc(Cl)c1 | -33.3 |  | 18400 nM [falling, single point] |
| COCCn1cc(-c2csc(N)n2)c2ccccc21 | -18.9 | 1640 nM [falling, partial curve] |  |
| CCOC(=O)CC(=O)c1sc2c(c1N)c(=O)[nH]c(=O)n2-c1ccc(OC)cc1 | 11.7 |  | 651 nM [rising, single point] |
| Cc1ccc(S(=O)(=O)N2CCCOC2CNC(=O)C(=O)NCc2cccs2)cc1 (stereo unspecified) | 11.1 | 10300 nM [rising, partial curve] |  |
| COc1cc2c(C(=O)Nc3ccc4c(c3)OCO4)cn(CC(C)C)c(=O)c2cc1OC |  |  | 326 nM [rising, full curve] |
| CCC(OC(=O)c1cccs1)C(=O)NCc1ccco1 (stereo unspecified) | -101 | 25900 nM [falling, partial curve] | 25900 nM [falling, partial curve] |
| O=P(OC1CCCCC1)(OC1CCCCC1)C(O)c1ccccc1 (stereo unspecified) | 33.9 | 731 nM [falling, full curve] |  |
| Cc1ccc(NC(=O)CSc2nc(=O)n(CCCN3CCOCC3)c3c2CCCC3)cc1 |  | 7.31 nM [rising, full curve, poor fit] |  |
| Cc1cc2c(c(=O)o1)C(Cc1ccccc1)C(C#N)=C(N)O2 (stereo unspecified) | 17.8 |  |  |
| O=c1[nH]c2ccc(Cl)cc2c(-c2ccccc2)c1N1CCN(c2ccccn2)CC1 | -0.204 | 184 nM [rising, full curve, poor fit] |  |
| O=C1c2ccccc2C(O)(c2ncc[nH]2)N1CCc1ccccc1 (stereo unspecified) | 36.9 |  | 23100 nM [rising, single point] |
| CN(C)c1ccc(S(=O)(=O)N(C)C)cc1[N+](=O)[O-] | -5.76 | 6510 nM [falling, single point] | 2310 nM [falling, single point] |

| SMILES | cell number change [%] | AC50 [1] | AC50 [2] |
| --- | --- | --- | --- |
| O=c1cc(-c2ccc(O)cc2)oc2ccc3ccccc3c12 | 7.52 | 326 nM [rising, partial curve, poor fit] | 291 nM [rising, partial curve, poor fit] |
| Cn1c2ccccc2c(=O)c2cc(C#Cc3ccc(N)cc3)ccc21 | -11 |  |  |
| O=C(NCCc1ccc(Cl)cc1)C1CCN(C(=O)N2CCOc3ccccc32)CC1 | 8.93 | 6510 nM [rising, single point] | 651 nM [rising, full curve, poor fit] |
| Cc1cc(C(=O)CCl)c(C)n1-c1cccc([N+](=O)[O-])c1 | -4.27 |  | 7310 nM [falling, single point] |
| COc1ccc(C(=O)NCC2COc3ccccc3O2)cc1S(=O)(=O)N1CCOCC1 (stereo unspecified) | -17 | 6510 nM [rising, single point] |  |
| CC(=O)Nc1ccc(NC(=O)CC2CCCC2)cc1 | 8.73 |  | 29.1 nM [rising, full curve, poor fit] |
| O=S(=O)(c1ccc(F)c(F)c1)N1CCN(CCc2ccccc2)CC1 | -1.1 | 731 nM [rising, single point] |  |
| O=C(NNc1cccc(Cl)n1)c1c(F)cccc1F | 70.9 |  | 13000 nM [rising, partial curve] |
| Cc1cccc(NC(=O)Nc2ccc(C)c(C)c2)n1 | 59.7 |  | 259 nM [rising, full curve] |
| O=C(CSCc1ccc(Cl)cc1)NCc1ccccn1 |  |  | 651 nM [falling, single point] |
| Cn1c(SCc2ccccn2)nnc1-c1cnccn1 |  |  | 461 nM [rising, single point] |
| Cc1c(C)c2ccc(OC(C)C(=O)N3CC[C@@]4(O)CCCC[C@H]4C3)c(C)c2oc1=O (stereo partly specified) |  | 3660 nM [falling, full curve] |  |
| CC(=O)Nc1ccccc1C(=O)C(=O)NCCc1ccccc1 | -34.5 | 4.61 nM [falling, full curve, poor fit] |  |
| COc1cccc(Nc2ccc(C(=O)O)cc2N)c1 | -3.55 | 6510 nM [rising, single point] |  |
| N#Cc1cc2c(ccc3ccccc32)oc1=O | 26.9 | 6510 nM [falling, partial curve, poor fit] |  |
| COc1ccc(C2=NC(C(F)(F)F)(C(F)(F)F)c3c(n(C)c(=O)n(C)c3=O)N2)cc1 | 99.6 | 82 nM [rising, full curve, poor fit] | 18400 nM [rising, single point] |
| NC(=O)C1CCC(NC(=O)OCc2ccccc2)CC1 (stereo unspecified) | 1.94 |  |  |
| Cc1ccccc1N(CC(=O)Nc1ccccc1C(=O)O)S(C)(=O)=O | 30.7 | 651 nM [rising, full curve] | 4.61 nM [rising, full curve] |

An excerpt of the results above, as a working copy:

| SMILES | cell number change [%] | AC50 [1] | AC50 [2] |
| --- | --- | --- | --- |
| COc1cccc(Nc2ccc(C(=O)O)cc2N)c1 | -3.55 | 6510 nM [rising, single point] |  |
| N#Cc1cc2c(ccc3ccccc32)oc1=O | 26.9 | 6510 nM [falling, partial curve, poor fit] |  |
| COc1ccc(C2=NC(C(F)(F)F)(C(F)(F)F)c3c(n(C)c(=O)n(C)c3=O)N2)cc1 | 99.6 | 82 nM [rising, full curve, poor fit] | 18400 nM [rising, single point] |
